Measurements reported in PubChem BioAssay AID1224826 (NIAID, 2016)
Here is one part, drawn at random, of about 17,000 reagents. Over the whole deposit, about 1,110 (6.6%) were called active. 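Active means lowered or raised reporter signal; replicate intensities are raw and not normalised per plate.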

Aim: 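Regulators of Tlr4 signalling leading to Tnf-alpha expression in macrophages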 (primary screen)
System: RAW264.7 G9 macrophages from mouse bearing reporters for p65 (GFP) and the Tnf promoter (mCherry)
Knock-down reagent: siRNA pool against mouse genes, 100 nM
Time to read-out: 16 h of LPS stimulation, after 2 days of siRNA transfection
Treatment: bacterial lipopolysaccharide (Salmonella minnesota R595), 10 ng/ml
Read-out: 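Nuclear mCherry signal of the Tnf promoter reporter measured by imaging after background removal, scaled to each plate median and turned into robust z-scores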
Scale: Tnf reporter robust z-score: higher = stronger Tnf promoter reporter signal after LPS; Tnf reporter intensity: higher = stronger Tnf promoter reporter signal
Hit rule: 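a well counts as active at a score of -1.3 or below (Tlr4 knock-down control median) or above 3 (raised signal); controls and wells holding fewer than 50 cells are excluded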
Meaning of the calls: active = Tnf reporter clearly lowered or raised; inactive = no clear change in Tnf reporter

Tnf reporter robust z-score | fewer than 50 cells in well | Tnf reporter intensity, replicate 1 | Tnf reporter intensity, replicate 2 | call | gene | PubChem SID
0.25 | enough cells in well | 287 | 222 | inactive | Mmp3 (matrix metallopeptidase 3) | SID315467949
-0.13 | enough cells in well | 302 | 192 | inactive | Sap18 (Sin3A-associated polypeptide 18) | SID315469095
-1.21 | enough cells in well | 65.8 | 59.3 | inactive | Nherf1 (NHERF family PDZ scaffold protein 1) | SID315470495
-0.2 | enough cells in well | 193 | 201 | inactive | Hdac11 (histone deacetylase 11) | SID315478971
-0.75 | enough cells in well | 90.1 | 85.5 | inactive | Upk1b (uroplakin 1B) | SID315469946
-0.95 | enough cells in well | 171 | 127 | inactive | Crk (Crk proto-oncogene, adaptor protein) | SID315466120
0.11 | enough cells in well | 259 | 212 | inactive | Crlf2 (cytokine receptor-like factor 2) | SID315471846
– | fewer than 50 cells per well; well left out of calls | 61.5 | 69.1 | inactive | Tmsb10 (thymosin beta 10) | SID315468788
0.88 | enough cells in well | 204 | 235 | inactive | Akr1b1 (aldo-keto reductase family 1 member B) | SID315465389
-1.37 | enough cells in well | 124 | 79.8 | active | Ankrd52 (ankyrin repeat domain 52) | SID315479355
-0.23 | enough cells in well | 175 | 314 | inactive | Gpr146 (G protein-coupled receptor 146) | SID315475694
– | fewer than 50 cells per well; well left out of calls | 59 | 71.8 | inactive | Gpr146 (G protein-coupled receptor 146) | SID315481254
-0.06 | enough cells in well | 128 | 207 | inactive | Ankef1 (ankyrin repeat and EF-hand domain containing 1) | SID315481049
-0.89 | enough cells in well | 127 | 107 | inactive | Arl6 (ADP-ribosylation factor-like 6) | SID315471440
-1 | enough cells in well | 128 | 95.2 | inactive | Hscb (HscB iron-sulfur cluster co-chaperone) | SID315476252
3.1 | enough cells in well | 320 | 140 | active | Slc68a1 | SID315475079
0.05 | enough cells in well | 243 | 171 | inactive | Grpel1 (GrpE-like 1, mitochondrial) | SID315468000
-0.46 | enough cells in well | 173 | 131 | inactive | Cog8 (component of oligomeric golgi complex 8) | SID315476104
1.68 | enough cells in well | 247 | 214 | inactive | Or5b98 (olfactory receptor family 5 subfamily B member 98) | SID315480055
-1.53 | enough cells in well | 111 | 64.9 | active | Trpv3 | SID315479898
0.03 | enough cells in well | 172 | 165 | inactive | Lman2 (lectin, mannose-binding 2) | SID315472699
1.47 | enough cells in well | 296 | 212 | inactive | Or9g8 (olfactory receptor family 9 subfamily G member 8) | SID315480229
0.27 | enough cells in well | 316 | 168 | inactive | Ppp1r16b (protein phosphatase 1, regulatory subunit 16B) | SID315478666
-1.62 | enough cells in well | 137 | 61.1 | active | Olig3 (oligodendrocyte transcription factor 3) | SID315476062
-0.52 | enough cells in well | 228 | 148 | inactive | Cdc34 (cell division cycle 34) | SID315477976
-0.1 | enough cells in well | 247 | 176 | inactive | Dlgap5 (DLG associated protein 5) | SID315478225
1.29 | enough cells in well | 251 | 247 | inactive | Defb5 (defensin beta 5) | SID315475774
0.67 | enough cells in well | 144 | 82.5 | inactive | Ushbp1 (USH1 protein network component harmonin binding protein 1) | SID315479161
-1.09 | enough cells in well | 84.9 | 145 | inactive | Crtap (cartilage associated protein) | SID315471634
1.39 | enough cells in well | 120 | 179 | inactive | Slc16a2 | SID315469278
1.26 | enough cells in well | 260 | 218 | inactive | Amacr (alpha-methylacyl-CoA racemase) | SID315467795
-0.15 | enough cells in well | 124 | 112 | inactive | Zfp120 (zinc finger protein 120) | SID315476433

Continued (4 carried over from the part before).
Tnf reporter robust z-score | fewer than 50 cells in well | Tnf reporter intensity, replicate 1 | Tnf reporter intensity, replicate 2 | call | gene | PubChem SID
-1.09 | enough cells in well | 84.9 | 145 | inactive | Crtap (cartilage associated protein) | SID315471634
1.39 | enough cells in well | 120 | 179 | inactive | Slc16a2 | SID315469278
1.26 | enough cells in well | 260 | 218 | inactive | Amacr (alpha-methylacyl-CoA racemase) | SID315467795
-0.15 | enough cells in well | 124 | 112 | inactive | Zfp120 (zinc finger protein 120) | SID315476433
0.19 | enough cells in well | 332 | 215 | inactive | Rhou (ras homolog family member U) | SID315473838
0.05 | enough cells in well | 204 | 162 | inactive | Golm2 (golgi membrane protein 2) | SID315481208
-1.96 | enough cells in well | 68.5 | 49.1 | active | Dnah1 (dynein, axonemal, heavy chain 1) | SID315476871
-0.87 | enough cells in well | 135 | 86.3 | inactive | Dnah1 (dynein, axonemal, heavy chain 1) | SID315478219
– | fewer than 50 cells per well; well left out of calls | 101 | 27.8 | inactive | Kdm8 (lysine (K)-specific demethylase 8) | SID315475432
-0.73 | enough cells in well | 113 | 144 | inactive | Bmal1 (basic helix-loop-helix ARNT like 1) | SID315465512
-0.3 | enough cells in well | 150 | 133 | inactive | Ifit1bl2 | SID315476971
-1.18 | enough cells in well | 37.5 | 95.5 | inactive | Mthfsd (methenyltetrahydrofolate synthetase domain containing) | SID315479201
0.63 | enough cells in well | 143 | 172 | inactive | Pla2g12b (phospholipase A2, group XIIB) | SID315473915
0.69 | enough cells in well | 270 | 252 | inactive | Hspd1 (heat shock protein 1 (chaperonin)) | SID315467325
0.96 | enough cells in well | 340 | 104 | inactive | Acy3 (aminoacylase 3) | SID315474272
-0.59 | enough cells in well | 185 | 61.5 | inactive | Krt88 (keratin 88) | SID315472362
1.03 | enough cells in well | 172 | 250 | inactive | Ascl1 (achaete-scute family bHLH transcription factor 1) | SID315467833
-0.14 | enough cells in well | 222 | 180 | inactive | Penk (preproenkephalin) | SID315468465
0.27 | enough cells in well | 273 | 100 | inactive | Kmo (kynurenine 3-monooxygenase) | SID315476122
0.16 | enough cells in well | 211 | 113 | inactive | Or2n1 (olfactory receptor family 2 subfamily N member 1) | SID315480472
2.04 | enough cells in well | 344 | 320 | inactive | Fhip2a (FHF complex subunit HOOK interacting protein 2A) | SID315478486
-1.08 | enough cells in well | 129 | 78 | inactive | 5430414B19Rik (RIKEN cDNA 5430414B19 gene) | SID315474793
– | fewer than 50 cells per well; well left out of calls | 171 | 84.7 | inactive | Slc25a39 | SID315473397
0.33 | enough cells in well | 186 | 144 | inactive | Or13f5 (olfactory receptor family 13 subfamily F member 5) | SID315480494
1.76 | enough cells in well | 370 | 92.7 | inactive | Tktl2 (transketolase-like 2) | SID315474968
– | fewer than 50 cells per well; well left out of calls | 165 | 130 | inactive | Ephb1 (Eph receptor B1) | SID315480928
-0.58 | enough cells in well | 217 | 138 | inactive | Phf2 (PHD finger protein 2) | SID315468495
– | fewer than 50 cells per well; well left out of calls | 93.8 | 101 | inactive | Ovgp1 (oviductal glycoprotein 1) | SID315465959
0.45 | enough cells in well | 245 | 288 | inactive | Patz1 (POZ (BTB) and AT hook containing zinc finger 1) | SID315471408
-0.52 | enough cells in well | 191 | 144 | inactive | Thumpd3 (THUMP domain containing 3) | SID315467076
